In this test the target is T1, full-length CrSAS-6 (HisCrSAS-6_FL) (Chlamydomonas reinhardtii) (UniProt A9CQL4).
T1 sequence: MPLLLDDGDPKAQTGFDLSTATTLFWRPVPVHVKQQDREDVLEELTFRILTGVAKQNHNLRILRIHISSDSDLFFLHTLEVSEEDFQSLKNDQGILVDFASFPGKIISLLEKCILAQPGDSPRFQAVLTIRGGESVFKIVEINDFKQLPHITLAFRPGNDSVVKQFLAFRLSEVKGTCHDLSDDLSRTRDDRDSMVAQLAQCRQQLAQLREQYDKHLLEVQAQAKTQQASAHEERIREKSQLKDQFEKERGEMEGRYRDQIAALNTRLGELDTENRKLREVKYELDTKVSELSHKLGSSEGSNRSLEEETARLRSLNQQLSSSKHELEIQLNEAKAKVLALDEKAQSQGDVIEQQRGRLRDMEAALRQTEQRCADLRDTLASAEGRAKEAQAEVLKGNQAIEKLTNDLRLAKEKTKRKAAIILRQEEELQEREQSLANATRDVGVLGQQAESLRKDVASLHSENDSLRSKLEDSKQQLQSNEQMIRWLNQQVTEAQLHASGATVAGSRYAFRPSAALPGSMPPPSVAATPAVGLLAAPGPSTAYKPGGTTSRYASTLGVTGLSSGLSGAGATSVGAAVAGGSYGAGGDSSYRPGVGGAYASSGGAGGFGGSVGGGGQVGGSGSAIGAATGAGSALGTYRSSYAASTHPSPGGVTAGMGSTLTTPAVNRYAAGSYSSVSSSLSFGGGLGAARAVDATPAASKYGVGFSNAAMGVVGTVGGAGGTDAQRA
In words: cryo-EM and cryo-electron tomography of assemblies formed in a cell-free assay; CrSAS-6_FL (10 uM) and Bld10p_C (78 uM) mixed, incubated 4 h at 4 °C in 20 mM Tris pH 7.5, 150 mM NaCl, then dialysed against 10 mM K-PIPES pH 7.2 (final ~0.5 uM and ~4 uM); both purified.

No constants are given. Whether binding was seen depends on the method and setting. Some results given as binding are weak or reduced against the parent protein; the word gives no strength. Tags and fused reporters may be left off the sequences shown.

B1: Bld10p_C (residues 1061-1641 of Bld10p) (domain or fragment, UniProt A8ID55 1061-1640)
chain: SAEQLLRAKEAEAEDLRRVYEALAAEHRRLQGGVGALEREGAMREAALQAKAAEVSSLAESQRAAQATINQYVMDLQAFERQVDSLSRQLSQAEADGEELVRQREALLEEIRAAQQVRLGLERHREELQRQVASLDSQVAIGRARLEDSNSEAASLNQRLAMERSRVAELEGLLAGMRAREFRSDFASDRAGGQLAVMVDRNRALEEQVASLQHQVGALQASREAQDRELSRLRGEALALAASTAASLEGRTAAAGGAAAGAAKDQAAALDRLTSERDAAQDEAARLRGALAAAEAAAASASTAAAVSIPAAGSGSEAAAVLRVRCSELERRNTELMQELRTLQDTCRQQESLLSAAQNELSALQAEHRRLVELVARLDQDKAAAAAEAAAARQQVATATRRVATAEQEAAAGAARLQSQLRDEQGRRRQAERDFLELLSSIEGAGGEAAAAAVAAAHGEGAAELASRRLRELQTQVDALEAEKAGLEEATQRTRATLGAMSGQMAAIQAEYDATNTALAGLAGAMAAGAQGQGQVQGPAGTAPAAAAGAPGPQPGQAQAGGFGGAHGGGSISLSGGPRR
On to B1, for which the binding result is recorded as “binds”.

The values above are taken from PMC5376648, “Cell-free reconstitution reveals centriole cartwheel assembly mechanisms” (Nature Communications, 2017).
